# Source: PubChem BioAssay AID493014 (National Center for Advancing Translational Sciences (NCATS), 2011)
# About 170 (0.05%) of roughly 340,000 compounds were called active. The inconclusive results got no clear call from the source; some entries with a clear call stand among them for comparison. Calls follow the shape of the dose curve; as a rule, active = well fitted inhibition curve with a large enough effect in the signal ratio, with a control signal flat (not every such curve was filed as active); inconclusive = small, poorly fitted or top-dose-only effect, or effect the other way, or a change in a side signal; inactive = flat fitted curve, though single readings scatter; the % refers to the signal ratio. Potencies of inconclusive entries are doubtful fits and often do not repeat.
# Assay: qHTS Assay to Find Inhibitors of Chronic Active B-Cell Receptor Signaling;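 as to activity change, negative = inhibition: plate controls were basal doxycycline-induced cells for no effect and cells given 10 µM MG132 for full effect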
# Conditions: ABC-DLBCL IkBa-CBG/CBR reporter, luminescence ratio (green luciferase fused to IkBa over red control in TMD8 lymphoma cells), 4 h; activity change, negative = inhibition: at 46.1 µM (top of the series) unless noted
# In short: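 TMD8 ABC-DLBCL cells carrying doxycycline-inducible green luciferase fused to IkappaBalpha plus unfused red luciferase were exposed to compounds (up to 46 uM) for 4 hrs at 37C. Activity came from the overlap-corrected green/red luminescence ratio.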
# Potency is read from the fitted curve at half-maximal effect.
SMILES,"activity change, negative = inhibition",Potency
COc1ccc(NC(=O)Nc2cc(C)ccc2F)cc1OC,inconclusive: -24.2%,
O=C(CSc1ncccc1C(=O)O)c1ccc2ccccc2c1,,"inconclusive: 17.8 µM [falling, partial curve]"
Cc1nc(NC(=O)/C=C/c2ccccc2)sc1C(=O)Nc1ccccc1Cl,inconclusive: 213%,
CN(Cc1ccon1)Cc1cn(C)nc1-c1ccc(Oc2ccccc2)cc1,inconclusive: 9.5%,
CCCCCCn1cnc2c(c1=O)c1nc3ccccc3nc1n2/N=C/c1ccco1,inconclusive: 15.7%,
Clc1ccc(Cl)c(OCCCCN2CCNCC2)c1,inconclusive: -8.03%,
CCCCCN(C(=O)COC(=O)COc1c(C)cc(C)cc1C)c1c(N)n(CCCC)c(=O)[nH]c1=O,inactive: 2.22%,
CCc1nn(CCCC(=O)N2CCN(c3ccc(OC)cc3)CC2)c(=O)c2cc3occc3n12,inconclusive: 2%,
CSCC[C@H](NC(=O)OC(C)(C)C)C(=O)N1CCC(C(=O)N[C@@H](C)C(=O)O)CC1,,"inconclusive: 6.31 µM [falling, single point]"
CCCCNc1c(-c2ccc(-c3ccc(C(C)=O)cc3)c(OC)c2)nc2cnccn12,,"inconclusive: 20.6 µM [falling, partial curve]"
CC(NC(=O)c1ccccc1Cl)C(=O)OCc1cn2cc(Cl)ccc2n1 (stereo unspecified),inconclusive: -2.39%,
O=C(Cc1c(F)cccc1Cl)OCC(=O)N1CCN(c2ccccc2)CC1,inactive: 4.07%,
O=C(Nc1cccc(Cl)c1)c1cc(-c2ccccc2)on1,inconclusive: 308%,
CC(C)C(=O)Nc1ccc2c(c1)nc(CCN1CCN(c3ccccn3)CC1)n2C,inconclusive: 3.02%,
O=C(c1cc2ccccc2o1)c1cccs1,inconclusive: 0.508%,
CCOc1cc2[nH]c(=S)n(Cc3ccc(C)o3)c(=O)c2cc1OCC,inactive: -2.06%,
COc1ccc(Cl)cc1NC(=O)CN(C)C(=O)/C=C/c1ccco1,inactive: -10.6%,
COc1cc2c(=O)c(-c3ccc(O)cc3)coc2cc1OC1OC(CO)C(O)C(O)C1O (stereo unspecified),inconclusive: 9.93%,
CCCc1cc(=O)oc2c(C)c(OCC(=O)N3CCC(C(=O)O)(c4ccccc4)CC3)ccc12,inconclusive: 7.76%,
CNc1ccc(/C=C(\C#N)C(=O)Nc2ccccn2)cc1[N+](=O)[O-],inconclusive: 10.1%,
COc1cccc(CN(CC(=O)NCc2ccccc2)C(=O)c2csnn2)c1,inactive: 11.8%,

SMILES,"activity change, negative = inhibition",Potency
CCN(CC)c1ccc(/C=N/NC(=O)CNC(=O)c2ccc3c(c2)OCCO3)cc1,,"inconclusive: 25.1 µM [falling, single point]"
C/C(=N\NC(=O)c1ccoc1C)c1cccnc1,,"inconclusive: 23.1 µM [falling, partial curve]"
C/C(N)=C(/C#N)C(=O)CSc1nc2ccc(C)cc2[nH]1,inconclusive: -2.08%,
CCc1ccc(OCC(=O)NCc2ccco2)c(Br)c1,inconclusive: -5.11%,
CCC(C)Nc1nc(-c2ccc3c(c2)NC(=O)CO3)cs1 (stereo unspecified),inconclusive: 13.7%,
Cc1ccc(C)c(Cn2c3ccccc3c3cnn(CC(=O)NCCN4CCOCC4)c(=O)c32)c1,inactive: 5.34%,
Cc1ccc(NC(=O)C(=O)NCc2ccccn2)cc1,,"inconclusive: 10 µM [falling, partial curve, poor fit]"
Cc1ccc(NC(=O)C2=CC(c3ccc(C)cc3)=NS(=O)(=O)N2C)cc1,,"inconclusive: 22.4 µM [falling, single point]"
S=C(NCc1ccc(Cl)cc1Cl)NC1CCCCC1,inconclusive: -3.29%,
CC(=O)c1c[nH]c(C(=O)Nc2ccc(N3CCCCCC3)cc2)c1,,"inconclusive: 20.6 µM [falling, partial curve, poor fit]"
O=c1oc(-c2ccccc2)nc2sc3c(c12)CCC3,,"inconclusive: 4.11 µM [falling, single point]"
COc1ccccc1OCC(=O)NCC1CCCCC1,inconclusive: 6.3%,
Cc1ccccc1CC(=O)Nc1cccc(S(=O)(=O)N2CCCC2)c1,inconclusive: -0.593%,
O=C(NC(=S)Nc1ncccn1)c1ccc(Cl)cc1Cl,,"inconclusive: 2.24 µM [falling, full curve]"
CC1CCCCC1NC(=O)CCCCCn1c(=S)[nH]c2ccccc2c1=O (stereo unspecified),inactive: -5.6%,
Cn1c(C(=O)NCCN2CCOCC2)cc2c(=O)n(C)c3ccccc3c21,inactive: 7.29%,
CCOC(=O)Cn1nc(C)n(-c2ccc(Br)cc2)c1=O,inactive: -5.08%,
CC(=O)N(CCc1ccccc1C)Cc1cc2cc(C)ccc2[nH]c1=O,inconclusive: 1.55%,
C=CCn1c(C(c2ccccc2)c2ccccc2)n[nH]c1=S,inconclusive: -10.4%,
CCN(C(=O)COC(=O)c1cccnc1Nc1cccc(C(F)(F)F)c1)C1CCS(=O)(=O)C1 (stereo unspecified),inconclusive: -15.1%,

# 2 entries from above, bar-delimited:
SMILES | activity change, negative = inhibition | Potency
CCc1ccc(OCC(=O)NCc2ccco2)c(Br)c1 | inconclusive: -5.11% | 
CCC(C)Nc1nc(-c2ccc3c(c2)NC(=O)CO3)cs1 (stereo unspecified) | inconclusive: 13.7% | 
